Assay results published in article PMC4326193.
No constants are given. Whether binding was seen depends on the method and setting. In cells and extracts the contact can be indirect. Some results given as binding are weak or reduced against the parent protein; the word gives no strength.

The chains behind the UniProt entries cited, without tags or fusion partners. Residues count along the entry.
UniProt P34741, residues 19-201: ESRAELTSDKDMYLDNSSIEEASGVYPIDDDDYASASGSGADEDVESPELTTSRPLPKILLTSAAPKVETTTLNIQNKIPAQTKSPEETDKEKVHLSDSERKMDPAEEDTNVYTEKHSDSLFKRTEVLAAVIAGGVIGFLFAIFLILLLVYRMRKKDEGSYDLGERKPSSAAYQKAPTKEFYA

T1: caveolin-2 (human (endogenous in MDA-MB231)) (UniProt P51636)
T1 sequence: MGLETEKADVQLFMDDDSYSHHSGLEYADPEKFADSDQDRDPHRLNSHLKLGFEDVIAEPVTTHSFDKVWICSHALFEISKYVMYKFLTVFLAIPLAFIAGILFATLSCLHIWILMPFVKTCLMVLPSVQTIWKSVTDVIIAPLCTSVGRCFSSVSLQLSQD


Target: T1, caveolin-2 (human (endogenous in MDA-MB231))
Test: co-IP; MDA-MB231 lysates (20 mM HEPES pH 7.5, 150 mM NaCl, 1% Triton X-100, 2 mM EDTA), pre-cleared, incubated with caveolin-2 antibody (rabbit IgG as control) overnight at 4°C, protein A-agarose, immunoblot; cells untreated or treated with chondroitin sulfate or heparan sulfate

| binding | Molecule |
| --- | --- |
| binds | syndecan-2 (from UniProt P34741 19-201) |
| no binding | syndecan-4 (protein, UniProt P31431 19-198) ESIRETEVIDPQDLLEGRYFSGALPDDEDVVGPGQESDDFELSGSGDLDDLEDSMIGPEVVHPLVPLDNHIPERAGSGSQVPTEPKKLEENEVIPKRISPVEESEDVSNKVSMSSTVQGSNIFERTEVLAALIVGGIVGILFAVFLILLLMYRMKKKDEGSYDLGKKPIYKKAPTNEFYA |
